Results are given in words; binding and its absence hold for the method and conditions named. Some binding calls cover weakened binding; strength is not graded here.
Tests used:
[1] = biological target: recombinant N-terminal 610 amino acids Huntingtin fragment recHTT610 (human) (UniProt P42858); experiment: recHTT610 protein capture ELISA, Huntingtin-specific OD signal against control extract
[2] = biological target: recombinant N-terminal 610 amino acids Huntingtin fragment recHTT610 (human) (UniProt P42858); experiment: recHTT610 protein capture ELISA
[3] = biological target: recombinant N-terminal 610 amino acids Huntingtin fragment recHTT610 (human) (UniProt P42858); experiment: recHTT610 capture ELISA

Amino acid sequences for entries named in this document (tags omitted). Residues count along the entry.
UniProt P42858, residues 1-610: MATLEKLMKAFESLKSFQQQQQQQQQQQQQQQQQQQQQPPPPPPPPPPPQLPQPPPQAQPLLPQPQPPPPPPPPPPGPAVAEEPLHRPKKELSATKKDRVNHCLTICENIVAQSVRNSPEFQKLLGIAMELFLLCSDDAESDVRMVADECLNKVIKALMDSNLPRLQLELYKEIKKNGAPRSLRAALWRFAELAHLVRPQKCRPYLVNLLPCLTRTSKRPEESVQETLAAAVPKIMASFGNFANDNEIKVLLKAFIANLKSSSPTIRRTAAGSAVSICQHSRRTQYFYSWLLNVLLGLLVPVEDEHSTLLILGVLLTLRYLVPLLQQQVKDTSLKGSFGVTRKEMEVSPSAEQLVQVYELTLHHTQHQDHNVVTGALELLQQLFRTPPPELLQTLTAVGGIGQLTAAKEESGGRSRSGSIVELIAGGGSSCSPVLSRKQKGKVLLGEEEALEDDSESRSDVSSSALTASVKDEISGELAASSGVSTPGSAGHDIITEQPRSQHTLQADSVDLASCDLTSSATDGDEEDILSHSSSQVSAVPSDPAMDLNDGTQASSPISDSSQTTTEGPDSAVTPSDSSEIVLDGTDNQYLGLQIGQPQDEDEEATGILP

Row | binding [1] | binding [2] | binding [3] | Binder
1 | binds | – | – | monoclonal antibody C6-17 (antibody, mouse IgG2a, V domains shown) VH: EVQLQQSGPELVKPGASVKISCKTSGYTFTEYTMHWVKQSHGKSLEWIGGINPNNGGTRYNQKFKGKATLTVDRSSSTAYMELRSLTSEDSAVYYCASLDGRDYWGQGTTLTVSS VL: DIVMSQSPSSLAVSAGEKVTMSCKSSQSLLNSRTRKNYLAWYQQKPGQSPKLLIYWASTRESGVPDRFTGSGSGTDFTLTISSVQAEDLAVYSCKQSYNLLTFGAGTKLELKR
2 | – | binds | binds | monoclonal antibody PRR13 (antibody, mouse IgG2a, V domains shown) VH: EVQLQQSAPELVKPGASVKMSCKASGYSFTDFYMKWVKQSHGKGLEWIGDIDPKNGDTFYNQKFKGRATLTVDKSSSTAYMQLNSLTTEDSAVYYCATYYGYTMDYWGQGTSVTVSS VL: QIVLTQSPAIMSASLGERVTMTCTASSSVTSSYLHWYQQKPGSSPKLWIYSTSNLASGVPARFSGSGSGTSYSLTISSMEAEDAATYYCHQYRRPPRTFGGGTKLEIKR

Reference: patent US20170304384A1
